Binding data for 2 substances are collected here from paper PMC7596556.

Amino acid sequences for entries named in this document (tags omitted). A change or cut given only in a name is not applied to a line headed by its entry.
UniProt P03372: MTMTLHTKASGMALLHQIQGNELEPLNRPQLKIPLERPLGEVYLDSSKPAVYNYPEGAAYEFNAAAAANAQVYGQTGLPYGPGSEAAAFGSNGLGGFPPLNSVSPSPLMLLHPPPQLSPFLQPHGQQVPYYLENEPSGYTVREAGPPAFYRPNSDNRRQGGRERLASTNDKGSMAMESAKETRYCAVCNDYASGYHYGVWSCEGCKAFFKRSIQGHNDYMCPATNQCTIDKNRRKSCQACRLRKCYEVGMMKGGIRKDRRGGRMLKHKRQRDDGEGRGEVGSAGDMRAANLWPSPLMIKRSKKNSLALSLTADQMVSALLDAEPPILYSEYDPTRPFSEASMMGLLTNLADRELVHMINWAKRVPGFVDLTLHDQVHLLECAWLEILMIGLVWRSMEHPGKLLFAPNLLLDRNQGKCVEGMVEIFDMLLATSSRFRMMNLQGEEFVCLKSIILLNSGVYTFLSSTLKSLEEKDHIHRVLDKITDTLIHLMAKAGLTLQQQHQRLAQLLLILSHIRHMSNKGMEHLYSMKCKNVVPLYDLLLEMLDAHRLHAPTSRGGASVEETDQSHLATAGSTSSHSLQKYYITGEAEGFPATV

This assay has as its target T1, GST-TNPO2 (Transportin-2) (human) (UniProt O14787).
T1 sequence: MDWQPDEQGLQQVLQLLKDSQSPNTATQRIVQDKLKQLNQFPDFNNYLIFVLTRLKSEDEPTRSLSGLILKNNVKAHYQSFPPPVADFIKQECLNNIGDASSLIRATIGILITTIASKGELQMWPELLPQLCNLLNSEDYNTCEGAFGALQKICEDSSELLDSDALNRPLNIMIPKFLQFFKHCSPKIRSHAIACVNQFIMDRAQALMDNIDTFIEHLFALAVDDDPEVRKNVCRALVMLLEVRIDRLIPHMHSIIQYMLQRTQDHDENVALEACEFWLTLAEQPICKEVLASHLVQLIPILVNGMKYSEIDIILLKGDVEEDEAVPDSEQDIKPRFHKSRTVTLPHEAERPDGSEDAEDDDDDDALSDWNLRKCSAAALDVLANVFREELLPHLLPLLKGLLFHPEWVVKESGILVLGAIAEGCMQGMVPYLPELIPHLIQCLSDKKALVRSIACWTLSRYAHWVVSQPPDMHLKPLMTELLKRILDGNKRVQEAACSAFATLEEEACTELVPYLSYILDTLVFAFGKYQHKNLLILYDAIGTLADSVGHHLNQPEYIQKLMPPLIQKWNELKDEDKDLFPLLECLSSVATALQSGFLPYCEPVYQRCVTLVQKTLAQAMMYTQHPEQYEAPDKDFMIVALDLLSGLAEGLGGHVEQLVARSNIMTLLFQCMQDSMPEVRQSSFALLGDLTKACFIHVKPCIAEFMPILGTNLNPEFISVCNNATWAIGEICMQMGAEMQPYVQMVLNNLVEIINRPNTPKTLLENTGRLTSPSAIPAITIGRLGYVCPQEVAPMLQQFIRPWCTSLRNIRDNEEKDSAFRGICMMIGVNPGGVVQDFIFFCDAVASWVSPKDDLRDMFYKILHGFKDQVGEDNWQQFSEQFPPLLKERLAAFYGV
In words: pull-down; 50 pmol GST fusion protein on Glutathione Sepharose 4B mixed with lysate of transfected HeLa cells; cells untreated or treated with 10 nM E2; lysis buffer 20 mM HEPES/NaOH pH 7.3, 150 mM NaCl, 5 mM MgCl2, 0.05% Tween-20; western blot for HA; only the target purified.

These are yes or no findings as the source states them, for the method shown. In cells and extracts the contact can be indirect. Binding calls can cover weak binding; strength is not graded here. Where a sequence is shown, tags or fusion partners need not be part of it.

Consider “3 × HA-ERαΔ1-mNLS (from UniProt P03372) (domain or fragment)”, for which the binding result is recorded as “binds”. The entry for “3 × HA-ERαΔ2-mNLS (from UniProt P03372) (domain or fragment)” is “binds weakly”.
